# PubChem BioAssay AID1224830, NIAID – 2016
# Test: 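Genes whose knock-down alters the TNF-alpha reporter response to LPS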 (primary screen)
# Cell system: human THP-1 monocytic leukaemia cells, TNF dual-luciferase reporter clone, PMA-differentiated to macrophage-like cells
# Reagents: siRNA pool against human genes, 50 nM
# Time to read-out: LPS for 4 h, given about 3 days after siRNA transfection
# Challenge: bacterial LPS (TLR4 ligand), 10 ng/ml
# Measured: 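Ratio of firefly to renilla light, scaled to the plate median and expressed as a robust z-score per replicate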
# Direction: TNF reporter robust z-score: higher = stronger TNF reporter response to LPS
# Hit rule: 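Each well counts as active if its z-score is over 2.8 or under -1.5; controls are left without a call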
# Shown is one part, drawn at random, of about 18,000 reagents. About 2,900 of them (16%) were called active. 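Calls are made per well; low scores hint the gene aids the LPS response, high scores that it dampens it.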 Repeated entries: four replicate wells of each siRNA pool. Reagent sequences are not shown.
target gene,TNF reporter robust z-score,call
KLHL40 (GeneID 131377),-0.36,inactive
KLHL40 (GeneID 131377),0.09,inactive
KLHL40 (GeneID 131377),-0.42,inactive
KLHL40 (GeneID 131377),0.75,inactive
KCNIP4 (GeneID 80333),2.36,inactive
KCNIP4 (GeneID 80333),2.11,inactive
KCNIP4 (GeneID 80333),0.43,inactive
KCNIP4 (GeneID 80333),0.5,inactive
ADGRL1 (GeneID 22859),0.73,inactive
ADGRL1 (GeneID 22859),0.89,inactive
ADGRL1 (GeneID 22859),2.37,inactive
RTCB (GeneID 51493),-1.09,inactive
RTCB (GeneID 51493),1.13,inactive
RTCB (GeneID 51493),0.19,inactive
RTCB (GeneID 51493),1.51,inactive
SMARCAD1 (GeneID 56916),1.11,inactive
SMARCAD1 (GeneID 56916),0.61,inactive
SMARCAD1 (GeneID 56916),0.67,inactive
SMARCAD1 (GeneID 56916),2.18,inactive
PLA2G6 (GeneID 8398),-0.83,inactive
PLA2G6 (GeneID 8398),-1.29,inactive
PLA2G6 (GeneID 8398),-0.73,inactive
PLA2G6 (GeneID 8398),-0.74,inactive
THEMIS2 (GeneID 9473),1.2,inactive
THEMIS2 (GeneID 9473),1.34,inactive
THEMIS2 (GeneID 9473),-0.15,inactive
THEMIS2 (GeneID 9473),1.12,inactive
PPFIA1 (GeneID 8500),0.38,inactive
PPFIA1 (GeneID 8500),1.29,inactive
PPFIA1 (GeneID 8500),1.5,inactive
PPFIA1 (GeneID 8500),1.93,inactive
SNRPF (GeneID 6636),1.79,inactive
SNRPF (GeneID 6636),-0.87,inactive
SNRPF (GeneID 6636),-0.91,inactive
SNRPF (GeneID 6636),-0.52,inactive
PHKB (GeneID 5257),-1.63,active
PHKB (GeneID 5257),-0.95,inactive
PHKB (GeneID 5257),-0.71,inactive
PHKB (GeneID 5257),-1.02,inactive
OTOS (GeneID 150677),1.37,inactive
OTOS (GeneID 150677),2.58,inactive
OTOS (GeneID 150677),1.45,inactive
OTOS (GeneID 150677),1.6,inactive
GNA11 (GeneID 2767),-1.11,inactive
GNA11 (GeneID 2767),-0.72,inactive
GNA11 (GeneID 2767),-1.41,inactive
GNA11 (GeneID 2767),-0.58,inactive
TPM2 (GeneID 7169),-0.12,inactive
TPM2 (GeneID 7169),0.9,inactive
TPM2 (GeneID 7169),0.15,inactive
TPM2 (GeneID 7169),0.31,inactive
KLK9 (GeneID 284366),1.01,inactive
KLK9 (GeneID 284366),0.03,inactive
KLK9 (GeneID 284366),3.23,active
KLK9 (GeneID 284366),-0.48,inactive
CLOCK (GeneID 9575),-0.6,inactive
CLOCK (GeneID 9575),0.15,inactive
CLOCK (GeneID 9575),0.88,inactive
CLOCK (GeneID 9575),0.74,inactive
OR5AC2 (GeneID 81050),-0.38,inactive
OR5AC2 (GeneID 81050),0.62,inactive
OR5AC2 (GeneID 81050),0.76,inactive
OR5AC2 (GeneID 81050),0.09,inactive
OR5H14 (GeneID 403273),0.07,inactive
OR5H14 (GeneID 403273),1.89,inactive
OR5H14 (GeneID 403273),-0.55,inactive
OR5H14 (GeneID 403273),-0.81,inactive
PDCD6IP (GeneID 10015),0.58,inactive
PDCD6IP (GeneID 10015),0.75,inactive
PDCD6IP (GeneID 10015),0.34,inactive
PDCD6IP (GeneID 10015),0.14,inactive
THADA (GeneID 63892),0.64,inactive
THADA (GeneID 63892),0.84,inactive
THADA (GeneID 63892),0.24,inactive
THADA (GeneID 63892),-1.1,inactive
KRT33A (GeneID 3883),1.46,inactive
KRT33A (GeneID 3883),2.08,inactive
KRT33A (GeneID 3883),1.93,inactive
KRT33A (GeneID 3883),1.56,inactive
EDC3 (GeneID 80153),1.55,inactive
EDC3 (GeneID 80153),1.41,inactive
EDC3 (GeneID 80153),0.81,inactive
EDC3 (GeneID 80153),1.58,inactive
NHS (GeneID 4810),-0.29,inactive
NHS (GeneID 4810),-0.25,inactive
NHS (GeneID 4810),-0.06,inactive
NHS (GeneID 4810),0.16,inactive
CD151 (GeneID 977),-0.59,inactive
CD151 (GeneID 977),2.79,inactive
CD151 (GeneID 977),3.38,active
CD151 (GeneID 977),1.99,inactive
GTPBP3 (GeneID 84705),-0.76,inactive
GTPBP3 (GeneID 84705),-0.14,inactive
GTPBP3 (GeneID 84705),-0.45,inactive
BBOX1 (GeneID 8424),1.76,inactive
BBOX1 (GeneID 8424),1.18,inactive
BBOX1 (GeneID 8424),-0.15,inactive
BBOX1 (GeneID 8424),0.86,inactive
SNHG32 (GeneID 50854),-0.02,inactive
SNHG32 (GeneID 50854),0.26,inactive
SNHG32 (GeneID 50854),-0.14,inactive
SNHG32 (GeneID 50854),0.81,inactive
TXNRD2 (GeneID 10587),-0.38,inactive
TXNRD2 (GeneID 10587),-0.09,inactive
TXNRD2 (GeneID 10587),0,inactive
TXNRD2 (GeneID 10587),1.09,inactive
COA4 (GeneID 51287),-0.99,inactive
COA4 (GeneID 51287),-0.12,inactive
COA4 (GeneID 51287),-0.22,inactive
COA4 (GeneID 51287),-0.48,inactive
MFSD2B (GeneID 388931),0.75,inactive
MFSD2B (GeneID 388931),0.65,inactive
MFSD2B (GeneID 388931),0.8,inactive
MFSD2B (GeneID 388931),0.02,inactive
NSD3 (GeneID 54904),0.79,inactive
NSD3 (GeneID 54904),1.51,inactive
NSD3 (GeneID 54904),1.3,inactive
NSD3 (GeneID 54904),0.65,inactive
NDST2 (GeneID 8509),-0.4,inactive
NDST2 (GeneID 8509),-0.12,inactive
NDST2 (GeneID 8509),0.12,inactive
NDST2 (GeneID 8509),-0.2,inactive
SSR1 (GeneID 6745),-0.85,inactive
SSR1 (GeneID 6745),0.78,inactive
SSR1 (GeneID 6745),0.76,inactive
SSR1 (GeneID 6745),-0.36,inactive
ZC3HAV1L (GeneID 92092),-0.2,inactive
ZC3HAV1L (GeneID 92092),0.7,inactive
ZC3HAV1L (GeneID 92092),0.14,inactive
ZC3HAV1L (GeneID 92092),0.89,inactive
KIF4A (GeneID 24137),-0.91,inactive
KIF4A (GeneID 24137),-0.82,inactive
KIF4A (GeneID 24137),-1.11,inactive
KIF4A (GeneID 24137),-0.67,inactive
GART (GeneID 2618),-0.11,inactive
GART (GeneID 2618),0.33,inactive
GART (GeneID 2618),0.15,inactive
GART (GeneID 2618),0.22,inactive
SEMA4F (GeneID 10505),-0.7,inactive
SEMA4F (GeneID 10505),-1.03,inactive
SEMA4F (GeneID 10505),0.24,inactive
SEMA4F (GeneID 10505),-0.64,inactive

6 of these entries, set out differently:
CD151 (GeneID 977) | TNF reporter robust z-score = 3.38; call = active
CD151 (GeneID 977) | TNF reporter robust z-score = 1.99; call = inactive
GTPBP3 (GeneID 84705) | TNF reporter robust z-score = -0.76; call = inactive
GTPBP3 (GeneID 84705) | TNF reporter robust z-score = -0.14; call = inactive
GTPBP3 (GeneID 84705) | TNF reporter robust z-score = -0.45; call = inactive
BBOX1 (GeneID 8424) | TNF reporter robust z-score = 1.76; call = inactive
